The list shows a part of the results.
How the values were obtained:
Experiment in all cases: log2 fold change, soluble protein after heating vs DMSO (PISA); higher = thermal stabilisation; K562 cells, 10 uM, 30 min; active = over 0.2 and 3.5 SD of the protein, either way, in both replicates (recomputed)
[1] = compound: CC1=C(C=C(C=C1)NC(=O)C2=CC(=CC=C2)C(C)(C)C#N)NC3=CC4=C(C=C3)N=CN(C4=O)C
How it was run: (§1)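 Soluble protein was quantified by TMTpro 16plex LC-MS/MS after channel sums were equalised. It was obtained as the supernatant after 21,000xg for 90 min from pooled aliquots of K562 cells (2×10^6 cells/mL, 10 μM compound, 30 min) heated for 3 min across 48°C-58°C and extracted in PBS with 0.5% NP-40 at 4°C. Thermal stability values are relative to control samples and come from duplicates. They are given as log2 fold changes.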

Amino acid sequences for entries named in this document (tags omitted). A change or cut given only in a name is not applied to a line headed by its entry.
UniProt P55081: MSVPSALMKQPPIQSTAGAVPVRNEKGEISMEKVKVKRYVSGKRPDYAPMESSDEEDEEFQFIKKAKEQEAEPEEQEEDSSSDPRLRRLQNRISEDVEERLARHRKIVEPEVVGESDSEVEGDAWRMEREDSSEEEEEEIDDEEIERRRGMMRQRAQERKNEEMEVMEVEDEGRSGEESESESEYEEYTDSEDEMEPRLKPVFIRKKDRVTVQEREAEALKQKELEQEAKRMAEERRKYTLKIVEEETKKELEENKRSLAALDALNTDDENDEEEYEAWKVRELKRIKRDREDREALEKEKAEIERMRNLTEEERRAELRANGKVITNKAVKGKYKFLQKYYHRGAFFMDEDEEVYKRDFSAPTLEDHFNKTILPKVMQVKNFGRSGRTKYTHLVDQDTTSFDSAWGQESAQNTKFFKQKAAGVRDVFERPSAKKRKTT
UniProt Q5JRA6: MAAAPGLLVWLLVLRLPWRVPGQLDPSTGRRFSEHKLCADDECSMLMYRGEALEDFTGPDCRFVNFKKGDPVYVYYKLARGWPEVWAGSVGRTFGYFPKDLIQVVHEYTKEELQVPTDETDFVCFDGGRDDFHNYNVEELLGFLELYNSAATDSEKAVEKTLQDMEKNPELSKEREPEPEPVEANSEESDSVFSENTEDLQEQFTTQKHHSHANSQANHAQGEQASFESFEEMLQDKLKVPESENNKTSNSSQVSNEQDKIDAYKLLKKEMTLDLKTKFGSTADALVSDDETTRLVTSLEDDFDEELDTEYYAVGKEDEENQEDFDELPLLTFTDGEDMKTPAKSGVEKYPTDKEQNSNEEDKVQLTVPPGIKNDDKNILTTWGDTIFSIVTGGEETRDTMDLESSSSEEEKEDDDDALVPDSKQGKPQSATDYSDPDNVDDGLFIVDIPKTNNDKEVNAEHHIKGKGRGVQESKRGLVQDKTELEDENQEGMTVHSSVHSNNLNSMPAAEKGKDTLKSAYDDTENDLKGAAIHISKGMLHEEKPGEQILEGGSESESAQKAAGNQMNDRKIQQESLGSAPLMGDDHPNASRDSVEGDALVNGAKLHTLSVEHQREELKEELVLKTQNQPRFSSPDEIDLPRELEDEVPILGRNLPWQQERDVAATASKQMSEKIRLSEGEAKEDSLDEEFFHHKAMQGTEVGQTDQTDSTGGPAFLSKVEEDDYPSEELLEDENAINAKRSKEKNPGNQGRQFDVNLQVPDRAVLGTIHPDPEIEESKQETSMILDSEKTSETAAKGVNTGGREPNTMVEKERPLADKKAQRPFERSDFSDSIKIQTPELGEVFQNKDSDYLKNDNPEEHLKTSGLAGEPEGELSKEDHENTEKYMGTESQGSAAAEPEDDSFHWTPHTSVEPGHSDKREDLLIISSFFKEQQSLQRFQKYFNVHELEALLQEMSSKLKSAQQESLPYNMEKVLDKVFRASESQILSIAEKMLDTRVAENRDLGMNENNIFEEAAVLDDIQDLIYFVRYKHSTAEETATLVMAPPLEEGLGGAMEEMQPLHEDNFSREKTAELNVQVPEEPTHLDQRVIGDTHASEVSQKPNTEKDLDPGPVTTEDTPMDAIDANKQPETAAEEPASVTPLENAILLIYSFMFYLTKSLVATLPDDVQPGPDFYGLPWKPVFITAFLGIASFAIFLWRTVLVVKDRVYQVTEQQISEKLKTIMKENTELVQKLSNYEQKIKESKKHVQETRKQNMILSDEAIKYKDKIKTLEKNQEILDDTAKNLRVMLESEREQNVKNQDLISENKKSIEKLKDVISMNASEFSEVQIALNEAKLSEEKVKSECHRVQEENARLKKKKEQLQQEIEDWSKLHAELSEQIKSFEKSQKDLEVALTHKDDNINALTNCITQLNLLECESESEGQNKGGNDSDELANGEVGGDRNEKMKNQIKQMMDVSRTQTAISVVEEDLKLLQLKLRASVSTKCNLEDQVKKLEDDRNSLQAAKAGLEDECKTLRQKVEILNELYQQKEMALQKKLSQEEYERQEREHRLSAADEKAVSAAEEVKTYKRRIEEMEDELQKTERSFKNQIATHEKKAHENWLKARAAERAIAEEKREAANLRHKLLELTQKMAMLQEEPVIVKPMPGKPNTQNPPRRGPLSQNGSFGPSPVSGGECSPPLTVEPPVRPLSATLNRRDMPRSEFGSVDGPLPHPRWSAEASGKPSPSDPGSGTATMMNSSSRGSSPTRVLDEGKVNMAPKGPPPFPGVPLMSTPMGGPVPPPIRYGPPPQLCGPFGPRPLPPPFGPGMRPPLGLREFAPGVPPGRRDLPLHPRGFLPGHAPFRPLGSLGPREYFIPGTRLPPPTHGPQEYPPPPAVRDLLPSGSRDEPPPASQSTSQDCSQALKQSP
UniProt Q9BUE0: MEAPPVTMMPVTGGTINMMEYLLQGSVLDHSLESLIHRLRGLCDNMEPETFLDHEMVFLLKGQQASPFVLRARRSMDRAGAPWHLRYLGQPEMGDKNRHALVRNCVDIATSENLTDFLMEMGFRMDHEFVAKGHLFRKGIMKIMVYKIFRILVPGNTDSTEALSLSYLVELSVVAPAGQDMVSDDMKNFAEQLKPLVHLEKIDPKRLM
UniProt Q9H8H3: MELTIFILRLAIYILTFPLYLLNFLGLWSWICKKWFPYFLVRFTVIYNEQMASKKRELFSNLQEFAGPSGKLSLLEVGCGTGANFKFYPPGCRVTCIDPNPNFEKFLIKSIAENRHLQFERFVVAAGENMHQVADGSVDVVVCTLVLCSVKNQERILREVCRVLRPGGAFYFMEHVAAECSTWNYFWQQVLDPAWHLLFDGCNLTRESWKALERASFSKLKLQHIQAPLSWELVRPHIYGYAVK
UniProt O60244: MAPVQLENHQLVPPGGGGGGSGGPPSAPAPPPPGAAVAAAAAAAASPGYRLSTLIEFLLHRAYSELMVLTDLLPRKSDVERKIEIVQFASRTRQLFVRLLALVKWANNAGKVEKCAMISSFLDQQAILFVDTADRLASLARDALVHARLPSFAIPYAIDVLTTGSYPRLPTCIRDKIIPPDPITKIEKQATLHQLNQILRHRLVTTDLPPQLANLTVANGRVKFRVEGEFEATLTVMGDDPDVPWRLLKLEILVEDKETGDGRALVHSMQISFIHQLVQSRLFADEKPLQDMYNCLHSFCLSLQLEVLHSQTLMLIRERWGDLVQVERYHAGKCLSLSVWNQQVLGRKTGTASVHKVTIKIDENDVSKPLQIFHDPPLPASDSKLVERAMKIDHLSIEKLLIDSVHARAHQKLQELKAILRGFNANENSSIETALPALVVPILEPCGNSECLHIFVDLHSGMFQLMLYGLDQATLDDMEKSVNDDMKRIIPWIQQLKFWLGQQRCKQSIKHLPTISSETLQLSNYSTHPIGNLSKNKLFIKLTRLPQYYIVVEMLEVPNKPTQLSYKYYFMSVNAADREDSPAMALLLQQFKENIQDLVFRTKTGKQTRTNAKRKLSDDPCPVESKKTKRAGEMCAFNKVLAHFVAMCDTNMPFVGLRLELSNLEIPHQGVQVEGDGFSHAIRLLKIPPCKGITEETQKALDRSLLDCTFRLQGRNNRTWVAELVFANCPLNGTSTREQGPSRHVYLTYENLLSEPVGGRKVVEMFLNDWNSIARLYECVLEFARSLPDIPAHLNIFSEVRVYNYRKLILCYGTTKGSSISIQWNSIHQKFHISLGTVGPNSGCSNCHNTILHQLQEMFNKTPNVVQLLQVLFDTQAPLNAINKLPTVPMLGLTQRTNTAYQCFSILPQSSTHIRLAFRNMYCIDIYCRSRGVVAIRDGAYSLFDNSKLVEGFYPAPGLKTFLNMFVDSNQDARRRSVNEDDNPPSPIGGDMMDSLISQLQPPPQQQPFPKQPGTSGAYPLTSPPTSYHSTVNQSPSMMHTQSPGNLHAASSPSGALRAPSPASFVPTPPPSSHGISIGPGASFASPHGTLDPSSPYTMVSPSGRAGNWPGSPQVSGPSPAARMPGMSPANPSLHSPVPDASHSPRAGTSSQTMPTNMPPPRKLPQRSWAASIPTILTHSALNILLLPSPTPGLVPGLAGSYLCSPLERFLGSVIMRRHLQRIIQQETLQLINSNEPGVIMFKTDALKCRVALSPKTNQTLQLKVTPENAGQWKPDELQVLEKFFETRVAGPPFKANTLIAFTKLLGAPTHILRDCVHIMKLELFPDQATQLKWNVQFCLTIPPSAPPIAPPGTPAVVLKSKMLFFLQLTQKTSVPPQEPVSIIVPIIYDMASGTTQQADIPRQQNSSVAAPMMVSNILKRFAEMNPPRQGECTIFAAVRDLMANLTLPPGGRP
UniProt Q9NZL9, whole entry, looked up: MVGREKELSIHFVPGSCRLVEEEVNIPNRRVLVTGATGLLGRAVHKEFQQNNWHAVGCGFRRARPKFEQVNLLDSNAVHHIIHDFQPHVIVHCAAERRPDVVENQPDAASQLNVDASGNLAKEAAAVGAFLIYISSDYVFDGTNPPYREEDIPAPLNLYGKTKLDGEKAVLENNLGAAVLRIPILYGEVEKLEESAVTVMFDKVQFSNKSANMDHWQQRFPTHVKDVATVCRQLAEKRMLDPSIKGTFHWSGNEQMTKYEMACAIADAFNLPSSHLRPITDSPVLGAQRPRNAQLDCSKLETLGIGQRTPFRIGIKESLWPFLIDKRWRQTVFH
UniProt P49736, whole entry, looked up: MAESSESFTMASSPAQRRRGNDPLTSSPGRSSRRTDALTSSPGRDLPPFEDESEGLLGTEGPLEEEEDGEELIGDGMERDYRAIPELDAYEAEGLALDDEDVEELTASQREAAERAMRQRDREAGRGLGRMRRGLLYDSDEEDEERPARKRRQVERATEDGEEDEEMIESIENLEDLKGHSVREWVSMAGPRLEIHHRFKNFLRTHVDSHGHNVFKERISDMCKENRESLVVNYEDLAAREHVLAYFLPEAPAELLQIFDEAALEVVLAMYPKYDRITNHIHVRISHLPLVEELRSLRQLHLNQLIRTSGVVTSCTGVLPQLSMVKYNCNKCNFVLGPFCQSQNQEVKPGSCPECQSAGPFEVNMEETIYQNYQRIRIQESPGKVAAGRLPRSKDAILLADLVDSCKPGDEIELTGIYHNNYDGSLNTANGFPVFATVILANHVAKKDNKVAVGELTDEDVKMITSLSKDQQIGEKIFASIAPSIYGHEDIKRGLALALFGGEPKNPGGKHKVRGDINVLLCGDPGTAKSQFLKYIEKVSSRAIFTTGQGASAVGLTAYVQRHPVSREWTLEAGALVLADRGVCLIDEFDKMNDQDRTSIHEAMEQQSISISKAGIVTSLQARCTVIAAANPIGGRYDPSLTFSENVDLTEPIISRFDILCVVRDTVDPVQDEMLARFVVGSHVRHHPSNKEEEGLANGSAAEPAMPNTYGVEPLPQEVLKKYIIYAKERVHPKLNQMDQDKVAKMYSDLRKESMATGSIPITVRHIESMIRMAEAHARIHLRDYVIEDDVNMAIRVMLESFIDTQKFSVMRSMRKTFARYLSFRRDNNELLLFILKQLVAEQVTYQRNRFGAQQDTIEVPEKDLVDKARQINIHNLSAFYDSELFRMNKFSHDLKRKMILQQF
UniProt Q14696: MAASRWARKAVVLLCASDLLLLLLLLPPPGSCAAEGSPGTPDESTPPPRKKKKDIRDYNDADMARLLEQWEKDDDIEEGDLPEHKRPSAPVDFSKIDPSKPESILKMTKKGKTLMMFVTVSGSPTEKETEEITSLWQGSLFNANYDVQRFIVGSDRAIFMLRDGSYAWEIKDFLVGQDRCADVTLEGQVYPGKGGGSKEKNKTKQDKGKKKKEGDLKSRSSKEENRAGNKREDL
UniProt P33991: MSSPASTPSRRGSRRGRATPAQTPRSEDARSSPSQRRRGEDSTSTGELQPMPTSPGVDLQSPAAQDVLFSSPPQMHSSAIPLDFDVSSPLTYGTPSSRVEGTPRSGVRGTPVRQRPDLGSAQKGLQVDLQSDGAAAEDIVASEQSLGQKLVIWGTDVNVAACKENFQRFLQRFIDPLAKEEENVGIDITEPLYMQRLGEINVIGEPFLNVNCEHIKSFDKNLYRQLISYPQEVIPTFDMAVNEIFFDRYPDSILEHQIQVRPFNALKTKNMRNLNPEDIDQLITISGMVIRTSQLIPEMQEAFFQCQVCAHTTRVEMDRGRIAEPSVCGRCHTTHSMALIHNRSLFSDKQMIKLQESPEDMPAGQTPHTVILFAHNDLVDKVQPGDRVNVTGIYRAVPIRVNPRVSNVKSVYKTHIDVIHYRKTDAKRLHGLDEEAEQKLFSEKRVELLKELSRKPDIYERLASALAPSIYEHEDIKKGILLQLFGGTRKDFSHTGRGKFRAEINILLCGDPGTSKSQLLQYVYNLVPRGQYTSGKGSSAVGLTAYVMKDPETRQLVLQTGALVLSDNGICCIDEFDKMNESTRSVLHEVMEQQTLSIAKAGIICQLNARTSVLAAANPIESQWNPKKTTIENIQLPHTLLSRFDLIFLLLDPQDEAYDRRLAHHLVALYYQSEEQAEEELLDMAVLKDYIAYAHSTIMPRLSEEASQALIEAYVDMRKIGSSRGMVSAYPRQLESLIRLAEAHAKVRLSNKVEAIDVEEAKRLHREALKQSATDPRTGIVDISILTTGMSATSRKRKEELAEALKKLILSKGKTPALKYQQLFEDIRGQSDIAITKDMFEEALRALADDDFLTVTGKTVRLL

[2] = compound: CC1=C(C=C(C=C1)NC(=O)C2=CC(=CC=C2)N(C)C)NC(=O)C3=CC=C(C=C3)O
How it was run: as §1

[3] = compound: CC1=CC=C(C=C1)SC2=C3C=C(SC3=CN=C2)C(=O)N
How it was run: as §1

[4] = compound: CC1=NC(=CC=C1)C2=C(N=C(N2)C(C)(C)C)C3=CC4=NC=CN=C4C=C3
How it was run: as §1

Nexturastat A = compound: CCCCN(Cc1ccc(C(=O)NO)cc1)C(=O)Nc1ccccc1 [Nexturastat A]
How it was run: as §1

vemurafenib = compound: CCCS(=O)(=O)Nc1ccc(F)c(C(=O)c2c[nH]c3ncc(-c4ccc(Cl)cc4)cc23)c1F [vemurafenib]
How it was run: as §1

[5] = compound: CCCS(=O)(=O)Nc1ccc(F)c(C(=O)c2c[nH]c3ncc(Cl)cc23)c1F
How it was run: as §1

[6] = compound: CCCc1cc(C)[nH]c(=O)c1CNC(=O)c1cc(-c2ccnc(N3CCN(C)CC3)c2)cc2c1cnn2C(C)C
How it was run: as §1

givinostat = compound: CCN(CC)Cc1ccc2cc(COC(=O)Nc3ccc(C(=O)NO)cc3)ccc2c1 [givinostat]
How it was run: as §1

barasertib = compound: CCN(CCCOc1ccc2c(Nc3cc(CC(=O)Nc4cccc(F)c4)[nH]n3)ncnc2c1)CCOP(=O)(O)O [barasertib]
How it was run: as §1

Measured: log2 fold change

MCFD2 (UniProt Q8NI22)
inactive: [1] 0 | [2] 0.015 | [3] -0.059 | [4] 0.086 | Nexturastat A 0.058 | vemurafenib 0.202 | [5] -0.037 | [6] 0.006 | givinostat -0.251 | barasertib 0.079

MBD3 (UniProt O95983)
inactive: [1] -0.053 | [2] -0.024 | [3] -0.028 | [4] -0.022 | Nexturastat A 0.024 | vemurafenib 0.004 | [5] 0 | [6] 0.041 | givinostat 0.066 | barasertib -0.011

MARS2 (UniProt Q96GW9)
inactive: [1] -0.016 | [2] 0.028 | [3] -0.021 | [4] 0.004 | Nexturastat A -0.062 | vemurafenib -0.049 | [5] 0.012 | [6] 0.001 | givinostat -0.091 | barasertib -0.017

MFAP1 (UniProt P55081)
inactive: [1] -0.143 | [2] 0.022 | [3] -0.033 | [4] 0.017 | Nexturastat A 0.039 | vemurafenib 0.032 | [5] -0.056 | [6] 0.134 | givinostat -0.005 | barasertib -0.04

METTL14 (UniProt Q9HCE5)
inactive: [1] -0.006 | [2] 0.014 | [3] -0.03 | [4] -0.013 | Nexturastat A 0.046 | vemurafenib -0.017 | [5] 0.022 | [6] -0.006 | givinostat -0.096 | barasertib 0.018

MAZ isoform 2 (UniProt P56270)
inactive: [1] 0.028 | [2] -0.027 | [3] -0.064 | [4] -0.082 | Nexturastat A 0.135 | vemurafenib -0.044 | [5] -0.034 | [6] 0.146 | givinostat -0.081 | barasertib -0.1

MECR (UniProt Q9BV79)
inactive: [1] -0.006 | [2] -0.102 | [3] -0.001 | [4] -0.031 | Nexturastat A -0.033 | vemurafenib -0.008 | [5] 0.002 | [6] -0.016 | givinostat -0.039 | barasertib -0.01

MIA3 (UniProt Q5JRA6)
inactive: [1] -0.027 | [2] -0.015 | [3] -0.025 | [4] -0.004 | Nexturastat A 0.022 | vemurafenib -0.014 | [5] -0.021 | [6] 0.013 | givinostat -0.006 | barasertib 0.034

MAVS (UniProt Q7Z434)
inactive: [1] -0.033 | [2] 0 | [3] 0.011 | [4] 0.032 | Nexturastat A -0.025 | vemurafenib 0.053 | [5] -0.009 | [6] -0.027 | givinostat 0.012 | barasertib -0.019

MCUB (UniProt Q9NWR8)
inactive: [1] 0.047 | [2] 0.008 | [3] 0.009 | [4] 0.116 | Nexturastat A -0.079 | vemurafenib 0.062 | [5] 0.073 | [6] -0.069 | givinostat 0.094 | barasertib 0.085

MED16 (UniProt Q9Y2X0)
inactive: [1] -0.025 | [2] -0.044 | [3] -0.046 | [4] 0.036 | Nexturastat A 0.162 | vemurafenib -0.017 | [5] 0.046 | [6] 0.014 | givinostat 0.076 | barasertib -0.03

MEF2D (UniProt Q14814)
inactive: [1] -0.008 | [2] 0.018 | [3] -0.043 | [4] -0.022 | Nexturastat A -0.062 | vemurafenib 0 | [5] -0.002 | [6] 0.012 | givinostat -0.045 | barasertib 0.015

Reprinted from the results shown (2 entries):
MED16 (UniProt Q9Y2X0)
inactive: [1] -0.025 | [2] -0.044 | [3] -0.046 | [4] 0.036 | Nexturastat A 0.162 | vemurafenib -0.017 | [5] 0.046 | [6] 0.014 | givinostat 0.076 | barasertib -0.03

MEF2D (UniProt Q14814)
inactive: [1] -0.008 | [2] 0.018 | [3] -0.043 | [4] -0.022 | Nexturastat A -0.062 | vemurafenib 0 | [5] -0.002 | [6] 0.012 | givinostat -0.045 | barasertib 0.015

(continued)

MEA1 (UniProt Q16626)
inactive: [1] 0.049 | [2] -0.049 | [3] 0.025 | [4] 0.008 | Nexturastat A 0.01 | vemurafenib 0.092 | [5] -0.037 | [6] -0.066 | givinostat 0.029 | barasertib 0.07

MFGE8 (UniProt Q08431)
inactive: [1] 0.034 | [2] -0.027 | [3] -0.122 | [4] -0.061 | Nexturastat A 0.161 | vemurafenib -0.028 | [5] -0.124 | [6] 0.019 | givinostat -0.004 | barasertib -0.057

MED17 (UniProt Q9NVC6)
inactive: [1] 0.042 | [2] -0.03 | [3] -0.186 | [4] 0.005 | Nexturastat A 0.052 | vemurafenib 0.071 | [5] -0.168 | [6] 0.025 | givinostat -0.014

MASP1 isoform 2 (UniProt P48740)
inactive: [1] -0.08

MECP2 isoform 2 (UniProt P51608)
inactive: [1] -0.029 | [2] 0 | [3] -0.041 | [4] -0.073 | Nexturastat A 0.13 | vemurafenib -0.079 | [5] -0.065 | [6] 0.199 | givinostat -0.026 | barasertib -0.089

ME1 (UniProt P48163)
inactive: [1] 0.027 | [2] 0.01 | [3] 0.01 | [4] -0.015 | Nexturastat A -0.079 | vemurafenib 0.012 | [5] -0.019 | [6] -0.01 | givinostat -0.007 | barasertib 0.019

MGAT5 (UniProt Q09328)
inactive: [1] -0.125 | [2] 0.063 | [3] 0.048 | [4] -0.023 | Nexturastat A 0.147 | vemurafenib -0.051 | [5] 0.003 | [6] -0.019 | givinostat 0.027 | barasertib 0.012

MCMBP (UniProt Q9BTE3)
inactive: [1] 0.021 | [2] -0.119 | [3] 0.041 | [4] -0.017 | Nexturastat A 0 | vemurafenib 0.028 | [5] 0.051 | [6] 0.027 | givinostat 0.053 | barasertib 0.073

MDC1 (UniProt Q14676)
inactive: [1] -0.019 | [2] -0.037 | [3] -0.013 | [4] -0.076 | Nexturastat A 0.048 | vemurafenib -0.037 | [5] -0.008 | [6] 0.074 | givinostat 0.055 | barasertib -0.074

MED18 (UniProt Q9BUE0)
inactive: [1] -0.081 | [2] -0.02 | [3] -0.031 | [4] 0.009 | Nexturastat A 0.026 | vemurafenib 0.051 | [5] -0.031 | [6] -0.02 | givinostat -0.015 | barasertib 0.094

METTL7A (UniProt Q9H8H3)
inactive: [1] 0.026 | [2] -0.052 | [3] -0.01 | [4] -0.002 | Nexturastat A -0.025 | vemurafenib -0.023 | [5] 0 | [6] -0.003 | givinostat 0.007 | barasertib -0.067

MED14 (UniProt O60244)
inactive: [1] -0.081 | [2] -0.05 | [3] -0.076 | [4] -0.059 | Nexturastat A 0.036 | vemurafenib -0.016 | [5] -0.066 | [6] 0.008 | givinostat 0.036 | barasertib 0.068

MCM5 (UniProt P33992)
inactive: [1] 0.006 | [2] -0.001 | [3] 0.022 | [4] 0.059 | Nexturastat A -0.032 | vemurafenib 0.037 | [5] 0.067 | [6] -0.014 | givinostat 0.007 | barasertib 0

MAT2B (UniProt Q9NZL9)
inactive: [1] -0.063 | [2] 0.023 | [3] -0.023 | [4] -0.002 | Nexturastat A -0.064 | vemurafenib -0.012 | [5] -0.056 | [6] -0.036 | givinostat 0.003 | barasertib -0.015

MCM2 (UniProt P49736)
inactive: [1] -0.006 | [2] 0.002 | [3] 0.003 | [4] 0.075 | Nexturastat A -0.067 | vemurafenib 0.019 | [5] 0.024 | [6] -0.019 | givinostat -0.015 | barasertib 0.006

METTL1 (UniProt Q9UBP6)
inactive: [1] -0.032 | [2] -0.065 | [3] -0.026 | [4] 0.036 | Nexturastat A -0.05 | vemurafenib 0.07 | [5] -0.016 | [6] 0.033 | givinostat -0.072 | barasertib 0.014

MESD (UniProt Q14696)
inactive: [1] -0.028 | [2] 0.005 | [3] 0.028 | [4] -0.008 | Nexturastat A -0.112 | vemurafenib -0.018 | [5] -0.012 | [6] -0.021 | givinostat -0.018 | barasertib 0.002

MCM4 (UniProt P33991)
inactive: [1] 0.001 | [2] -0.026 | [3] 0.018 | [4] 0.018 | Nexturastat A -0.059 | vemurafenib 0.015 | [5] 0.045 | [6] -0.031 | givinostat 0.012 | barasertib 0.02

— the supplement of paper PMC10849652
